Results taken from PMC4834435.
Residue numbers refer to the chain shown, from its start. Results are given in words; binding and its absence hold for the method and conditions named. For some of these results: Binding seen in cells or lysates may run through a third protein. Some entries that bind do so weakly or less than the wild type. Where a sequence is shown, tags or fusion partners need not be part of it.

Assays:
[1] = biological target: T1, His-tagged Orc1 K362A (S. cerevisiae) (UniProt P54784); experiment: SEC; Superdex 200 in buffer H/0.2 (200 mM KCl) of the peak fractions after His affinity step and SP Sepharose; fractions on 9% SDS-PAGE, Coomassie; subunits co-expressed in 293T cells
T1 sequence: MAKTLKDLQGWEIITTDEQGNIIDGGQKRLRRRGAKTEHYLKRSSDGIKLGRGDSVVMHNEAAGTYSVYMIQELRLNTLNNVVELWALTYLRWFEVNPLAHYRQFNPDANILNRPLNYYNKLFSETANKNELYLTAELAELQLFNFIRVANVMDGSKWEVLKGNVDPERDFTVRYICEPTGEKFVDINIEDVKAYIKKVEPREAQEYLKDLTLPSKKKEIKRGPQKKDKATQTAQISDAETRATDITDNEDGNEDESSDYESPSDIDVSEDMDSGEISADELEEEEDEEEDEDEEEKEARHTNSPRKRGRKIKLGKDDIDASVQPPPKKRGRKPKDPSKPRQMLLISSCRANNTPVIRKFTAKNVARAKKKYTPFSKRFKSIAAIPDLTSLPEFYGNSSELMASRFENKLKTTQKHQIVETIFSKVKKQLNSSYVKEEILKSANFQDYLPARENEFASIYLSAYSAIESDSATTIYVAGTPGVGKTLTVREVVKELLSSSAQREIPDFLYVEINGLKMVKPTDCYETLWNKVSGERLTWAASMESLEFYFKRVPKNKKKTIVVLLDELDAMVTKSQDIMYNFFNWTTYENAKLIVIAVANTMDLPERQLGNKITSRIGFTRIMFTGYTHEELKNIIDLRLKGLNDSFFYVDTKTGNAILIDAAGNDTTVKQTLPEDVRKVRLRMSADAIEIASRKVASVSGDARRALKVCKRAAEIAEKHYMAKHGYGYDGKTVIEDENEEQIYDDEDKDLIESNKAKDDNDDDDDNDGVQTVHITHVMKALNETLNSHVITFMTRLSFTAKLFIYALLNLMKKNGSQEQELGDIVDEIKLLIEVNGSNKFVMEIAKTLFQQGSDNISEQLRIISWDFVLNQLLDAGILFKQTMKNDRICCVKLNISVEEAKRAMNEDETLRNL

[2] = biological target: T2, His-tagged Orc1 R367A (S. cerevisiae) (UniProt P54784); experiment: as above
T2 sequence: T1 sequence with A362K, R367A

[3] = biological target: T1, His-tagged Orc1 K362A (S. cerevisiae); experiment: HisTrap affinity column chromatography; HisTrap column with linear imidazole gradient elution of lysate of 293T cells co-overexpressing His-tagged Orc1 (wild type or mutant) and Orc2/3/4/5/6; fractions on 9% SDS-PAGE, Coomassie
[4] = biological target: T2, His-tagged Orc1 R367A (S. cerevisiae); experiment: as above
[5] = biological target: T3, His-tagged Orc1 (Orc1-His), wild type (S. cerevisiae) (UniProt P54784); experiment: pull-down; cleared lysates of 293T cells co-overexpressing Orc1-His, Orc2, Orc3, Orc4, Orc5 with or without Orc6; pulldown by the His tag; 9% SDS-PAGE, Coomassie staining
T3 sequence: T1 sequence with A362K

[6] = biological target: T3, His-tagged Orc1 (Orc1-His), wild type (S. cerevisiae); experiment: SEC; Superdex 200 in buffer H/0.2 (200 mM KCl) of the peak fractions after His affinity step and SP Sepharose; fractions on 9% SDS-PAGE, Coomassie; subunits co-expressed in 293T cells
[7] = biological target: T3, His-tagged Orc1 (Orc1-His), wild type (S. cerevisiae); experiment: HisTrap affinity column chromatography; HisTrap column with linear imidazole gradient elution of lysate of 293T cells co-overexpressing His-tagged Orc1 (wild type or mutant) and Orc2/3/4/5/6; fractions on 9% SDS-PAGE, Coomassie
[8] = biological target: T3, His-tagged Orc1 (Orc1-His), wild type (S. cerevisiae); experiment: pull-down; MagneHis beads, 1 h, in lysis buffer (50 mM Hepes-KOH pH 7.6, 0.3% NP-40, 400 mM KCl, 17.5 mM imidazole) with nuclease-treated lysate of 293T cells co-overexpressing Orc1-His and Orc2/3/4/5; five washes, elution with 500 mM imidazole; SDS-PAGE, Coomassie

Measured: binding

B1: Orc6 (protein, UniProt P38826 1-435)
chain: MSMQQVQHCVAEVLRLDPQEKPDWSSGYLKKLTNATSILYNTSLNKVMLKQDEEVARCHICAYIASQKMNEKHMPDLCYYIDSIPLEPKKAKHLMNLFRQSLSNSSPMKQFAWTPSPKKNKRSPVKNGGRFTSSDPKELRNQLFGTPTKVRKSQNNDSFVIPELPPMQTNESPSITRRKLAFEEDEDEDEEEPGNDGLSLKSHSNKSITGTRNVDSDEYENHESDPTSEEEPLGVQESRSGRTKQNKAVGKPQSELKTAKALRKRGRIPNSLLVKKYCKMTTEEIIRLCNDFELPREVAYKIVDEYNINASRLVCPWQLVCGLVLNCTFIVFNERRRKDPRIDHFIVSKMCSLMLTSKVDDVIECVKLVKELIIGEKWFRDLQIRYDDFDGIRYDEIIFRKLGSMLQTTNILVTDDQYNIWKKRIEMDLALTEPL
binds: [1] | [2] | [3] | [4]

B2: Orc2 (protein, UniProt P32833 1-620)
chain: MLNGEDFVEHNDILSSPAKSRNVTPKRVDPHGERQLRRIHSSKKNLLERISLVGNERKNTSPDPALKPKTPSKAPRKRGRPRKIQEELTDRIKKDEKDTISSKKKRKLDKDTSGNVNEESKTSNNKQVMEKTGIKEKREREKIQVATTTYEDNVTPQTDDNFVSNSPEPPEPATPSKKSLTTNHDFTSPLKQIIMNNLKEYKDSTSPGKLTLSRNFTPTPVPKNKKLYQTSETKSASSFLDTFEGYFDQRKIVRTNAKSRHTMSMAPDVTREEFSLVSNFFNENFQKRPRQKLFEIQKKMFPQYWFELTQGFSLLFYGVGSKRNFLEEFAIDYLSPKIAYSQLAYENELQQNKPVNSIPCLILNGYNPSCNYRDVFKEITDLLVPAELTRSETKYWGNHVILQIQKMIDFYKNQPLDIKLILVVHNLDGPSIRKNTFQTMLSFLSVIRQIAIVASTDHIYAPLLWDNMKAQNYNFVFHDISNFEPSTVESTFQDVMKMGKSDTSSGAEGAKYVLQSLTVNSKKMYKLLIETQMQNMGNLSANTGPKRGTQRTGVELKLFNHLCAADFIASNEIALRSMLREFIEHKMANITKNNSGMEIIWVPYTYAELEKLLKTVLNTL
binds: [1] | [2] | [3] | [4]

B3: Orc3 (protein, UniProt P54790 1-616)
chain: MSDLNQSKKMNVSEFADAQRSHYTVYPSLPQSNKNDKHIPFVKLLSGKESEVNVEKRWELYHQLHSHFHDQVDHIIDNIEADLKAEISDLLYSETTQKRRCFNTIFLLGSDSTTKIELKDESSRYNVLIELTPKESPNVRMMLRRSMYKLYSAADAEEHPTIKYEDINDEDGDFTEQNNDVSYDLSLVENFKRLFGKDLAMVFNFKDVDSINFNTLDNFIILLKSAFKYDHVKISLIFNINTNLSNIEKNLRQSTIRLLKRNYHKLDVSSNKGFKYGNQIFQSFLDTVDGKLNLSDRFVEFILSKMANNTNHNLQLLTKMLDYSLMSYFFQNAFSVFIDPVNVDFLNDDYLKILSRCPTFMFFVEGLIKQHAPADEILSLLTNKNRGLEEFFVEFLVRENPINGHAKFVARFLEEELNITNFNLIELYHNLLIGKLDSYLDRWSACKEYKDRLHFEPIDTIFQELFTLDNRSGLLTQSIFPSYKSNIEDNLLSWEQVLPSLDKENYDTLSGDLDKIMAPVLGQLFKLYREANMTINIYDFYIAFRETLPKEEILNFIRKDPSNTKLLELAETPDAFDKVALILFMQAIFAFENMGLIKFQSTKSYDLVEKCVWRGI
binds: [5] | [6] | [1] | [2] | [7] | [3] | [4] | [8]
